Data taken from US20100210467A1, “AGENT FOR IMPROVING SUGARCANE BRIX AND METHOD OF PROMOTING SUGARCANE RIPENING USING THE SAME” (Kumiai Chemical Industry Co., Ltd., priority 2007, published 2010).

System: sugarcane
Assay: Example 4: sugar content of sugarcane stem juice after pyribenzoxim back pack spraying, field test in Brazil
Assay type: in vivo
Details: 40 g/ha; initial day of spraying
Protocol: In accordance with “NORMAS DE AVALIAçÃO DA […] DA CANA-DE-AçÚCAR” used in Brazilian sugar refining plants as Standard for quality evaluation of sugarcane, the analysis on the sugar content in the squeezed juice of sugarcane stem was carried out for Brix value, sugar content in sugarcane (PC), and total sugar amount recoverable from sugarcane stem (ATR) as follows.
Brix was measured according to a digital refractometer. PC was calculated according to the equation (1). ATR was calculated according to the equation (5). […]
Next, 20 individual sugarcanes were cut from each area on the initial day of spraying, after 15 days of spraying, after 30 days of spraying and after 45 days of spraying, and thereafter the stems were squeezed and sugar was recovered from the juice to obtain the yield. Each yield was compared with the yield of the initial day of spraying and the rate of increase (%) was calculated. […]

For COc1cc(OC)nc(Oc2cccc(Oc3nc(OC)cc(OC)n3)c2C(=O)ON=C(c2ccccc2)c2ccccc2)n1 [Pyribenzoxim, pyribenzoxim], the “Concentration of soluble solid matter, Brix” value was 16.0% and the “Total sugar amount recoverable from 1 kg of stem, ATR” value was 112.2 g.
